For 1 molecule, binding results are on record in patent US20220372114A1.

For assay [1], the target named is SARS-CoV-2 S2 domain (SARS-CoV-2 (WIV02 isolate)) (UniProt P0DTC2). In words: ELISA (FIG. 2). In general terms: In an ELISA, binding on a coated surface is turned into a signal by an enzyme label.
The target is the same in assay [2]. The experiment in a line: ELISA.

No constants are given. Whether binding was seen depends on the method and setting. Some entries that bind do so weakly or less than the wild type.

B1: 10-B11-A (antibody, V domains shown)
VH: QVQLQQPGAELVKPGASVKVSCKASGYTFTSYWMHWVKQRPGQGLEWIGRIHPSDSDTNYYQKFKGKATLSVDKSSSTAYMQLSSLTSEDSAVYYCAIPLYSYDNSGGYYPMDYWGQGTSVTVSS
VL: DIVMTQSQKFMSTSVGDRVTITCKASQNVRTAVAWYQQKPGQSPKKLIYLASNRHTGVPDRFTGSGSGTDFTLAISNVQSEDLADYFCLQHWNYPFTFGSGTRLEIK
With B1, the binding result in assay [1] and in assay [2] was “binds” throughout.
